Test results from US20260167673A1, “NOVEL POLYPEPTIDE, POLYPEPTIDE DERIVATIVE AND USE THEREOF” (NANJING ANJI BIOTECHNOLOGY CO., LTD., priority 2023, published 2026).
No constants are given. Whether binding was seen depends on the method and setting. Some results given as binding are weak or reduced against the parent protein; the word gives no strength.

T1: AQP2 protein (UniProt P41181 1-271, limits assumed)
T1 construct: also called protein AQP2
T1 sequence (looked up): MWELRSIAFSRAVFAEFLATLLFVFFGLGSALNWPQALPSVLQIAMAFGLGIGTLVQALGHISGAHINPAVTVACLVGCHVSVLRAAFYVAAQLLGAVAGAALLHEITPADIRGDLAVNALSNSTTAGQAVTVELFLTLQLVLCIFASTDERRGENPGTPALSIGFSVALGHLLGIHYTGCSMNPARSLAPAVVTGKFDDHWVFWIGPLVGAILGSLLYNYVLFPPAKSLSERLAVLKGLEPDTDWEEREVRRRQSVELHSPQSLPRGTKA


What follows are binders tested against T1, AQP2 protein (assay: microscale thermophoresis (MST)).

Binder	binding
HMMW-8A (Alanine mutant of HMMW at position 8; solid-phase synthesis) peptide: MERAGVPAFSPRRSSVEAKMQSTSCSVRKSSTVTAWPAVVLLLSWGQRRGG	binds
HMMW-48A (Alanine mutant of HMMW at position 48; solid-phase synthesis) peptide: MERAGVPGFSPRRSSVEAKMQSTSCSVRKSSTVTAWPAVVLLLSWGQARGG	binds
HMMW-49A (Alanine mutant of HMMW at position 49; solid-phase synthesis) peptide: MERAGVPGFSPRRSSVEAKMQSTSCSVRKSSTVTAWPAVVLLLSWGQRAGG	binds
